No constants are given. Whether binding was seen depends on the method and setting.
Molecular target: A96 (elastin-like polypeptide)
Test: dynamic light scattering; 10 μM in dPBS, 25 °C and 37 °C, 384-well plate, Wyatt Dynapro plate reader; followed for 7 days at 37 °C; both purified

binding: no binding (tested: 10 μM)
B1: A96 (elastin-like polypeptide) (protein)
chain: MGVPGAGVPGAGVPGAGVPGAGVPGAGVPGAGVPGAGVPGAGVPGAGVPGAGVPGAGVPGAGVPGAGVPGAGVPGAGVPGAGVPGAGVPGAGVPGAGVPGAGVPGAGVPGAGVPGAGVPGAGVPGAGVPGAGVPGAGVPGAGVPGAGVPGAGVPGAGVPGAGVPGAGVPGAGVPGAGVPGAGVPGAGVPGAGVPGAGVPGAGVPGAGVPGAGVPGAGVPGAGVPGAGVPGAGVPGAGVPGAGVPGAGVPGAGVPGAGVPGAGVPGAGVPGAGVPGAGVPGAGVPGAGVPGAGVPGAGVPGAGVPGAGVPGAGVPGAGVPGAGVPGAGVPGAGVPGAGVPGAGVPGAGVPGAGVPGAGVPGAGVPGAGVPGAGVPGAGVPGAGVPGAGVPGAGVPGAGVPGAGVPGAGVPGAGVPGAGVPGAGVPGAGVPGAGVPGAGVPGAGVPGAGVPGAGVPGAGVPGAGVPGAGVPGAGVPGAGVPGAGY

Source: paper PMC7504496
